{"source": "PubChem BioAssay AID1259254 (NCATS, 2017)", "aim": "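Finding genes that stop cells copying their DNA twice in one cycle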 (primary screen)", "cells": "human HCT116 colorectal cancer cells", "reagents": "single siRNA against human genes", "timing": "3 days", "measurement": "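Nuclei stained with Hoechst and imaged; cell-cycle phase assigned by DNA content; G2 share scaled per plate, non-targeting siRNA 0%, GMNN siRNA 100%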", "reading the numbers": "G2 robust z-score and G2 cells, % of GMNN control: higher = more G2 cells, more excess DNA replication", "hit rule": "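Active siRNAs have a G2 robust z of 5 or more median absolute deviations over the median, which in these data means about 38% or higher of GMNN control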", "note": "The deposit covers about 59,000 reagents; shown is a part drawn at random. About 1,550 of them (2.6%) were called active. 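G2 share is only a proxy for re-replication; each gene was hit by three separate siRNAs, and active genes were retested.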 Reagents against one gene are numbered here. Further read-outs or replicates are left out here. Not given: the amount of reagent."}
{"Target gene": "LINC01139 (GeneID 339535)", "reagent": 1, "G2 robust z-score": 0.0598, "G2 cells, % of GMNN control": 3.39, "activity call": "inactive"}
{"Target gene": "LINC01139 (GeneID 339535)", "reagent": 2, "G2 robust z-score": -0.171, "G2 cells, % of GMNN control": 1.76, "activity call": "inactive"}
{"Target gene": "LINC01139 (GeneID 339535)", "reagent": 3, "G2 robust z-score": 1.73, "G2 cells, % of GMNN control": 15.2, "activity call": "inactive"}
{"Target gene": "CPTP (GeneID 80772)", "reagent": 1, "G2 robust z-score": -0.415, "G2 cells, % of GMNN control": 0.0442, "activity call": "inactive"}
{"Target gene": "CPTP (GeneID 80772)", "reagent": 2, "G2 robust z-score": -0.734, "G2 cells, % of GMNN control": -2.2, "activity call": "inactive"}
{"Target gene": "CPTP (GeneID 80772)", "reagent": 3, "G2 robust z-score": 1.31, "G2 cells, % of GMNN control": 12.2, "activity call": "inactive"}
{"Target gene": "COX20 (GeneID 116228)", "reagent": 1, "G2 robust z-score": 0.785, "G2 cells, % of GMNN control": 8.49, "activity call": "inactive"}
{"Target gene": "COX20 (GeneID 116228)", "reagent": 2, "G2 robust z-score": -0.491, "G2 cells, % of GMNN control": -0.485, "activity call": "inactive"}
{"Target gene": "COX20 (GeneID 116228)", "reagent": 3, "G2 robust z-score": -0.54, "G2 cells, % of GMNN control": -0.834, "activity call": "inactive"}

Continued, starting with the last 2 of the part before.
{"Target gene": "COX20 (GeneID 116228)", "reagent": 2, "G2 robust z-score": -0.491, "G2 cells, % of GMNN control": -0.485, "activity call": "inactive"}
{"Target gene": "COX20 (GeneID 116228)", "reagent": 3, "G2 robust z-score": -0.54, "G2 cells, % of GMNN control": -0.834, "activity call": "inactive"}
{"Target gene": "MYO1G (GeneID 64005)", "reagent": 1, "G2 robust z-score": 3.81, "G2 cells, % of GMNN control": 29.8, "activity call": "inactive"}
{"Target gene": "MYO1G (GeneID 64005)", "reagent": 2, "G2 robust z-score": -0.442, "G2 cells, % of GMNN control": -0.144, "activity call": "inactive"}
{"Target gene": "MYO1G (GeneID 64005)", "reagent": 3, "G2 robust z-score": -0.791, "G2 cells, % of GMNN control": -2.6, "activity call": "inactive"}
{"Target gene": "NAT1 (GeneID 9)", "reagent": 1, "G2 robust z-score": -0.489, "G2 cells, % of GMNN control": -0.471, "activity call": "inactive"}
{"Target gene": "NAT1 (GeneID 9)", "reagent": 2, "G2 robust z-score": 0.944, "G2 cells, % of GMNN control": 9.61, "activity call": "inactive"}
{"Target gene": "NAT1 (GeneID 9)", "reagent": 3, "G2 robust z-score": 0.113, "G2 cells, % of GMNN control": 3.76, "activity call": "inactive"}
{"Target gene": "HORMAD1 (GeneID 84072)", "reagent": 1, "G2 robust z-score": -0.296, "G2 cells, % of GMNN control": 0.885, "activity call": "inactive"}
{"Target gene": "HORMAD1 (GeneID 84072)", "reagent": 2, "G2 robust z-score": 3.23, "G2 cells, % of GMNN control": 25.7, "activity call": "inactive"}
{"Target gene": "HORMAD1 (GeneID 84072)", "reagent": 3, "G2 robust z-score": -1.09, "G2 cells, % of GMNN control": -4.68, "activity call": "inactive"}
{"Target gene": "LGALS2 (GeneID 3957)", "reagent": 1, "G2 robust z-score": -0.898, "G2 cells, % of GMNN control": -3.35, "activity call": "inactive"}
{"Target gene": "LGALS2 (GeneID 3957)", "reagent": 2, "G2 robust z-score": 0.705, "G2 cells, % of GMNN control": 7.93, "activity call": "inactive"}
{"Target gene": "LGALS2 (GeneID 3957)", "reagent": 3, "G2 robust z-score": 3.28, "G2 cells, % of GMNN control": 26, "activity call": "inactive"}
{"Target gene": "HSD52 (GeneID 729467)", "reagent": 1, "G2 robust z-score": -1.29, "G2 cells, % of GMNN control": -6.1, "activity call": "inactive"}
{"Target gene": "HSD52 (GeneID 729467)", "reagent": 2, "G2 robust z-score": 0.993, "G2 cells, % of GMNN control": 9.95, "activity call": "inactive"}
{"Target gene": "HSD52 (GeneID 729467)", "reagent": 3, "G2 robust z-score": -0.518, "G2 cells, % of GMNN control": -0.676, "activity call": "inactive"}
